The antibiotic and cytotoxicity screens of Wong et al. (2023)
Shown are results outside the selection of hits, which stands elsewhere.

Assays:
HSkMC = human skeletal muscle cells; experiment: cytotoxicity call (relative viability < 0.9); settings: 10 µM
HepG2 = experiment: cytotoxicity call (relative viability < 0.9); settings: 10 µM

O=C(O)C1=C[C@@H](O)[C@@H](O)[C@H](O)C1 was tested, and the cytotoxicity call (HSkMC) was “inactive” and the cytotoxicity call (HepG2) was “inactive”.
O=C(O)C1=C[C@@H](O)[C@H](O)[C@H](O)C1 was tested, and the cytotoxicity call (HSkMC) was “inactive” and the cytotoxicity call (HepG2) was “inactive”.
In the case of O=C(c1ccccc1)c1ccccc1, the cytotoxicity call (HSkMC) is reported as “inactive” and the cytotoxicity call (HepG2) is reported as “inactive”.
With O=C(O)C1=CC(O)C(O)C(O)C1 (stereo not drawn) the cytotoxicity call (HSkMC) was “inactive” and the cytotoxicity call (HepG2) was “inactive”.
